Source: patent US11253617B2, “One step 64Cu-BaBaSar-RGD2 production method” (UNIVERSITY OF SOUTHERN CALIFORNIA, priority 2017, dated 2022)
At least one compound was matched to its structure with a doubt left.

Assay: Blood clearance from venous blood samples during PET scan
Format: in vivo, monkey
Settings: n=3, from percentage of injected dose in blood sample
Description: Venous blood samples were withdrawn from monkey during the PET scan. […] At 22 h after injection, the activity in the blood decreased to 0.79±0.52% ID. Based on the percentage of injected dose in blood sample, the half life of ^64Cu-BaBaSar-RGD2 in blood pool was calculated as 12.1±4.0 min (n=3).

N=C(N)NCCC[C@@H]1NC(=O)[C@H](CCCCNC(=O)c2ccc(CNC34CNCCNCC(NCc5ccc(C(=O)NCCCC[C@@H]6NC(=O)[C@@H](Cc7ccc(O)cc7)NC(=O)[C@H](CC(=O)O)NC(=O)CNC(=O)[C@H](CCCNC(=N)N)NC6=O)cc5)(CNCCNC3)CNCCNC4)cc2)NC(=O)[C@@H](Cc2ccc(O)cc2)NC(=O)[C@H](CC(=O)O)NC(=O)CNC1=O [^64Cu-BaBaSar-RGD2, metal not drawn]
Half life in blood pool: 12.1 ± 4.0 min
